This continues a long series; more values of the same kind are listed elsewhere.
System: bacterial colonies
Assay: Validation of the rapid test strip on bacterial colonies sensitive or resistant to third-generation cephalosporins (Table 12)
Format: biochemical
Set-up: key: A signal on the TL is considered as “P”; An absence of signal on the TL is defined as “N”
Experimental: In order to validate the test strip on bacterial colonies for its clinical use, […].
In order to carry out these tests, all of the solutions below have been prepared in the buffer strip having, for composition: 0.1 M pH 8 Tris buffer/HCL+0.15 M NaCl+0.5% Tween 20+1% chaps+0.01% sodium azide. […] The tracer is in dried format on the CP. […] A CL was produced. It consists of anti-tracer antibodies. The migration is carried out in a plastic cassette.
A bacterial colony was sampled from an URI-4 agar with a 1 μl ose, then deposited in the previously prepared Eppendorf tube. The tube was vortexed for five seconds, then incubated for 30 minutes at ambient temperature. Once the incubation was finished, 100 μl was sampled and deposited on the test strip. The reading is carried out after 10 minutes migration. A signal on the TL is considered as “P”. An absence of signal on the TL is defined as “N”.

Measured: results of the test

CO/N=C(\C(=O)N[C@@H]1C(=O)N2C(C(=O)O)=C(COC(C)=O)CS[C@H]12)c1csc(N)n1 [non-hydrolysed cefotaxime, cefotaxime]
P: E. coli, KPC-6, isolate number 1, strains capable of hydrolysing cefotaxime | E. coli, KPC-7, isolate number 1, strains capable of hydrolysing cefotaxime | E. coli, KPC-14, isolate number 1, strains capable of hydrolysing cefotaxime | E. coli, KPC-28, isolate number 1, strains capable of hydrolysing cefotaxime | E. coli, KPC-31, isolate number 1, strains capable of hydrolysing cefotaxime | E. coli, KPC-33, isolate number 1, strains capable of hydrolysing cefotaxime | E. coli, MCR-1 + OXA-48 + KPC-28, isolate number 1, strains capable of hydrolysing cefotaxime | E. coli, NDM-1 + MCR-1, isolate number 1, strains capable of hydrolysing cefotaxime | E. coli, NDM-1 + VIM-2, isolate number 1, strains capable of hydrolysing cefotaxime | E. coli, NDM-7, isolate number 1, strains capable of hydrolysing cefotaxime | E. coli, NDM-19, isolate number 1, strains capable of hydrolysing cefotaxime | E. coli, OXA-48 + MCR-1, isolate number 2, strains capable of hydrolysing cefotaxime | E. coli, OXA-181, isolate number 2, strains capable of hydrolysing cefotaxime | E. coli, OXA-244, isolate number 2, strains capable of hydrolysing cefotaxime | E. coli, OXA-484, isolate number 1, strains capable of hydrolysing cefotaxime | E. coli, Overexpressed AmpC, isolate number 1, strains capable of hydrolysing cefotaxime | E. coli, SHV + DHA, isolate number 1, strains capable of hydrolysing cefotaxime | E. coli, SHV-2a, isolate number 1, strains capable of hydrolysing cefotaxime | E. coli, SHV-12 + IMP-8, isolate number 1, strains capable of hydrolysing cefotaxime | E. coli, TEM-1 + KPC-2 + OXA-9, isolate number 1, strains capable of hydrolysing cefotaxime | E. coli, TEM-1 + OXA-244, isolate number 1, strains capable of hydrolysing cefotaxime | E. coli, TEM-52, isolate number 1, strains capable of hydrolysing cefotaxime | H. alvei, Overexpressed AmpC, isolate number 2, strains capable of hydrolysing cefotaxime | M. morganii, CTX-M-15, isolate number 1, strains capable of hydrolysing cefotaxime | M. morganii, Overexpressed AmpC, isolate number 1, strains capable of hydrolysing cefotaxime | P. aeruginosa, BEL, isolate number 1, strains capable of hydrolysing cefotaxime | P. aeruginosa, CTX-M-2, isolate number 1, strains capable of hydrolysing cefotaxime | P. aeruginosa, GES-2, isolate number 1, strains capable of hydrolysing cefotaxime | P. aeruginosa, GES-5, isolate number 1, strains capable of hydrolysing cefotaxime | P. aeruginosa, GES-9, isolate number 1, strains capable of hydrolysing cefotaxime | P. aeruginosa, GIM-1 + OXA-2 + OXA 395, isolate number 1, strains capable of hydrolysing cefotaxime | P. aeruginosa, IMP-1, isolate number 1, strains capable of hydrolysing cefotaxime | P. aeruginosa, IMP-2, isolate number 2, strains capable of hydrolysing cefotaxime | P. aeruginosa, IMP-7, isolate number 1, strains capable of hydrolysing cefotaxime | P. aeruginosa, IMP-13, isolate number 2, strains capable of hydrolysing cefotaxime | P. aeruginosa, IMP-15, isolate number 1, strains capable of hydrolysing cefotaxime | P. aeruginosa, IMP-19, isolate number 1, strains capable of hydrolysing cefotaxime | P. aeruginosa, IMP-26, isolate number 1, strains capable of hydrolysing cefotaxime | P. aeruginosa, IMP-29, isolate number 1, strains capable of hydrolysing cefotaxime | P. aeruginosa, IMP-31, isolate number 1, strains capable of hydrolysing cefotaxime | P. aeruginosa, IMP-39, isolate number 1, strains capable of hydrolysing cefotaxime | P. aeruginosa, IMP-56, isolate number 1, strains capable of hydrolysing cefotaxime | P. aeruginosa, IMP-63, isolate number 1, strains capable of hydrolysing cefotaxime | P. aeruginosa, IMP-71, isolate number 1, strains capable of hydrolysing cefotaxime | P. aeruginosa, KPC-2, isolate number 4, strains capable of hydrolysing cefotaxime | P. aeruginosa, NDM-1, isolate number 2, strains capable of hydrolysing cefotaxime | P. aeruginosa, Overexpressed AmpC + OprD deficient + MexA/B-OprM + MexC/D-OprJ, isolate number 1, strains capable of hydrolysing cefotaxime | P. aeruginosa, Overexpressed AmpC + OprD deficient + MexA/B-OprM + MexX/Y-OprM, isolate number 1, strains capable of hydrolysing cefotaxime | P. aeruginosa, Overexpressed AmpC + OprD deficient + MexA/B-OprM, isolate number 1, strains capable of hydrolysing cefotaxime | P. aeruginosa, PER-1, isolate number 1, strains capable of hydrolysing cefotaxime | P. aeruginosa, PER-2, isolate number 1, strains capable of hydrolysing cefotaxime | P. aeruginosa, SHV-2a, isolate number 1, strains capable of hydrolysing cefotaxime | P. aeruginosa, SHV-5, isolate number 1, strains capable of hydrolysing cefotaxime | P. aeruginosa, SPM-1, isolate number 1, strains capable of hydrolysing cefotaxime | P. aeruginosa, TEM-4, isolate number 1, strains capable of hydrolysing cefotaxime | P. aeruginosa, VEB-1, isolate number 1, strains capable of hydrolysing cefotaxime | P. aeruginosa, VIM-1, isolate number 1, strains capable of hydrolysing cefotaxime | P. aeruginosa, VIM-2, isolate number 2, strains capable of hydrolysing cefotaxime | P. aeruginosa, VIM-4, isolate number 3, strains capable of hydrolysing cefotaxime | P. fluorescens, VIM-2, isolate number 1, strains capable of hydrolysing cefotaxime | P. putida, IMP-1, isolate number 1, strains capable of hydrolysing cefotaxime | P. putida, IMP-46, isolate number 1, strains capable of hydrolysing cefotaxime | P. putida, VIM-2, isolate number 1, strains capable of hydrolysing cefotaxime | P. stutzeri, DIM-1, isolate number 1, strains capable of hydrolysing cefotaxime | P. stutzeri, IMP-1, isolate number 1, strains capable of hydrolysing cefotaxime | P. stutzeri, VIM-2, isolate number 1, strains capable of hydrolysing cefotaxime | S. enterica, CTX-M-15 + TEM-1 + OXA-1 + OXA-9 + OXA-10 + NDM-1, isolate number 1, strains capable of hydrolysing cefotaxime | S. marcescens, ESBL + SME-2, isolate number 1, strains capable of hydrolysing cefotaxime | S. marcescens, OXA-405, isolate number 1, strains capable of hydrolysing cefotaxime | S. marcescens, Overexpressed AmpC + Pénicillinase, isolate number 1, strains capable of hydrolysing cefotaxime | S. marcescens, SHV-12 + IMP-10, isolate number 1, strains capable of hydrolysing cefotaxime | S. marcescens, TEM-1 + KPC-2, isolate number 1, strains capable of hydrolysing cefotaxime
N: E. coli, MCR-1, isolate number 1, strains not capable of hydrolysing cefotaxime | E. coli, MCR-2, isolate number 1, strains not capable of hydrolysing cefotaxime | E. coli, MCR-5, isolate number 1, strains not capable of hydrolysing cefotaxime | E. coli, N/A, isolate number 1, strains not capable of hydrolysing cefotaxime | P. aeruginosa, AIM-1, isolate number 1, strains not capable of hydrolysing cefotaxime | P. aeruginosa, CARBA-4, isolate number 1, strains not capable of hydrolysing cefotaxime | P. aeruginosa, Mex A/B-OprM, isolate number 1, strains not capable of hydrolysing cefotaxime | P. aeruginosa, Mex C/D-OprJ, isolate number 1, strains not capable of hydrolysing cefotaxime | P. aeruginosa, N/A, isolate number 2, strains not capable of hydrolysing cefotaxime | P. aeruginosa, OXA-32, isolate number 1, strains not capable of hydrolysing cefotaxime | P. aeruginosa, OXA-198, isolate number 1, strains not capable of hydrolysing cefotaxime | P. aeruginosa, OprD deficient, isolate number 1, strains not capable of hydrolysing cefotaxime | P. aeruginosa, PME-1, isolate number 1, strains not capable of hydrolysing cefotaxime | P. putida, N/A, isolate number 1, strains not capable of hydrolysing cefotaxime | P. stutzeri, N/A, isolate number 1, strains not capable of hydrolysing cefotaxime | S. marcescens, SME-1, isolate number 1, strains not capable of hydrolysing cefotaxime | S. marcescens, SME-4, isolate number 1, strains not capable of hydrolysing cefotaxime | Salmonella spp., MCR-1, isolate number 1, strains not capable of hydrolysing cefotaxime | Salmonella spp., MCR-4, isolate number 1, strains not capable of hydrolysing cefotaxime | Salmonella spp., MCR-5, isolate number 1, strains not capable of hydrolysing cefotaxime
